Results published in publication PMC7819943, “Rice protein-binding microarrays: a tool to detect cis-acting elements near promoter regions in rice”.
The list shows a part of the results.

molecular target: T1, OsSMF1 (Oryza sativa, UniProt Q6ZLB0 1-436); assay: protein-binding microarray (RPBM); PBS, 2% BSA, 51.3 ng/ul salmon testes DNA, 50 uM zinc acetate, 200 nM TF, 25 C, 1 h; high values mean tight binding; conditions: protein: recombinant; tags: N-terminal polyhistidine and DsRed monomer fusion (pET32a); chain copies: 2; label: CyDye5-dUTP incorporated in the synthesized complementary strand; 3' TTTTT single-stranded linker to array surface; dsDNA, one strand shown
T1 sequence: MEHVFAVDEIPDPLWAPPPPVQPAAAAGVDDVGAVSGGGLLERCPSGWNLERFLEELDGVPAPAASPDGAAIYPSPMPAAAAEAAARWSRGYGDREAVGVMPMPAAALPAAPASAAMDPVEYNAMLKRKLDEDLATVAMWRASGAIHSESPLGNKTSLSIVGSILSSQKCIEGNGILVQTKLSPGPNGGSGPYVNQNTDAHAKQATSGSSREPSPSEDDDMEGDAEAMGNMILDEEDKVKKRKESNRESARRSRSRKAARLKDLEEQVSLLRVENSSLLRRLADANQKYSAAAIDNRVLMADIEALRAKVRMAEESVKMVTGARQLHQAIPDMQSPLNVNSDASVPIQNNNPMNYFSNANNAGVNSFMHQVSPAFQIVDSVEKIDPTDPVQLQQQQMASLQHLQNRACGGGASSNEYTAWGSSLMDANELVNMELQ
Outline: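 Transcription factors, each fused N-terminally to a polyhistidine tag and DsRed, were expressed in E. coli BL21-CodonPlus and purified on Ni–NTA. A custom Agilent array was made double-stranded by primer extension with Cy5-dUTP and blocked with 2% BSA. It was incubated with 200 nM protein in PBS, 2% BSA, salmon testes DNA and 50 µM zinc acetate at 25 °C for 1 h, then washed. The binding signal is per-feature fluorescence intensity (arbitrary units) read on an Axon 4000B scanner.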

Row | Sequence | binding signal
1 | TGATGGCCAGTCATGTTACAGACTGTATCATGCAGTTTGACGGAGTCACCTAGTGCAG | 3700 fluorescence intensity (a.u.)
2 | CCTCACGCCGTCACGGCCCCACCTGTCAGCCTCCCATCTCCGGAGTCACCTAGTGCAG | 3900 fluorescence intensity (a.u.)
3 | CTCGATGCCCTTCCACGATGACTTGGCCGCCACTGCCACACGGAGTCACCTAGTGCAG | 6220 fluorescence intensity (a.u.)
4 | GCGGCCGCAGCTGCACTGCCGGTTCGTGACGAAGCTGCTCCGGAGTCACCTAGTGCAG | 3420 fluorescence intensity (a.u.)
5 | CAGAGACGTTAGCTGCAACTGCAAGCATGTCAAACTTTGGCGGAGTCACCTAGTGCAG | 3270 fluorescence intensity (a.u.)
6 | ATTTAATACTTGAGTCAACTCCTTAATATCAATATTGTAACGGAGTCACCTAGTGCAG | 3680 fluorescence intensity (a.u.)
7 | ACGCTGCCCGAGTACACGGCTACACGCTCGGCTCCCGACCCGGAGTCACCTAGTGCAG | 22900 fluorescence intensity (a.u.)
8 | GATCGAGTCGTGGGTGTGCATGGTGTGCGTGGCGTCGGTTCGGAGTCACCTAGTGCAG | 5590 fluorescence intensity (a.u.)
9 | GCGCCAAGGAAAGTGGCGCTGAGCTGTAGATGTCAGCGCCCGGAGTCACCTAGTGCAG | 3940 fluorescence intensity (a.u.)
10 | TCAGATCAGGGACACAACAGTGCACAGACGTACGTGGCAGCGGAGTCACCTAGTGCAG | 9200 fluorescence intensity (a.u.)
11 | GGAACAATTATAGATTTACCACTTATTCTAATCGGTACCGCGGAGTCACCTAGTGCAG | 7660 fluorescence intensity (a.u.)
12 | GGCTAATGATGATGCGGATGGATGCTGCTAATGACTGTGGCGGAGTCACCTAGTGCAG | 4470 fluorescence intensity (a.u.)
13 | CGACTTCCTCGACCTGTCGCTTGTCGACGGGTTAACGTGCCGGAGTCACCTAGTGCAG | 3660 fluorescence intensity (a.u.)
14 | GAAAATCATCCAATGCTTCGGATCCAACGATAGCAGCGTGCGGAGTCACCTAGTGCAG | 24300 fluorescence intensity (a.u.)
15 | TTCTCCCACTGTCATCTTCGGCATATCCTTCTCATTGTCTCGGAGTCACCTAGTGCAG | 3750 fluorescence intensity (a.u.)
16 | CATCTTATCTATCTAGATTTGTAATTCTAAGATGTGTCTTCGGAGTCACCTAGTGCAG | 3210 fluorescence intensity (a.u.)
17 | CAGCTCCTGCAATGCTAGCGTACCAAGTCCGCTGATTCAACGGAGTCACCTAGTGCAG | 3160 fluorescence intensity (a.u.)
18 | ACACGTGAAGCAGCAACGCCACGTCACTGCCTCACGCTGTCGGAGTCACCTAGTGCAG | 7290 fluorescence intensity (a.u.)
19 | GCAGAAAGCTTTGTAACTGCATGCCTGTGTTAGGAAGCAACGGAGTCACCTAGTGCAG | 12600 fluorescence intensity (a.u.)
20 | CCCTTTCACATGTCACCTCTGACCCACAAACAAACCCTTTCGGAGTCACCTAGTGCAG | 4480 fluorescence intensity (a.u.)
21 | CCGTTTAATATTTTCCATCTTGATGGACACGTGGTTTGTTCGGAGTCACCTAGTGCAG | 9220 fluorescence intensity (a.u.)

Exported in markdown: entries from further up

| Row | Sequence | binding signal |
| --- | --- | --- |
| 12 | GGCTAATGATGATGCGGATGGATGCTGCTAATGACTGTGGCGGAGTCACCTAGTGCAG | 4470 fluorescence intensity (a.u.) |
| 13 | CGACTTCCTCGACCTGTCGCTTGTCGACGGGTTAACGTGCCGGAGTCACCTAGTGCAG | 3660 fluorescence intensity (a.u.) |

Following part

Row | Sequence | binding signal
22 | TCCATCTGCTCATGTTGTTGAGGTCCACGTCTGGTCAAAGCGGAGTCACCTAGTGCAG | 4670 fluorescence intensity (a.u.)
23 | TTCTTCACACACACACACGGCCTCGTGGCTTCGCGACTCCCGGAGTCACCTAGTGCAG | 3550 fluorescence intensity (a.u.)
24 | ATATGTCATCGGTATCTCAATGACATGTAGGACCCACATGCGGAGTCACCTAGTGCAG | 4140 fluorescence intensity (a.u.)
25 | CAATTTCTCGTTCGCTCTCACGTGCGCGTCGCATCTCCCTCGGAGTCACCTAGTGCAG | 3460 fluorescence intensity (a.u.)
26 | GCCCTAATGGTGGGCGGCAAGCTGACGTGGCAGACGGTGGCGGAGTCACCTAGTGCAG | 29700 fluorescence intensity (a.u.)
27 | GGGAGGGTGAAATCACGTGCATCGCTACGTCCGTCTTTGCCGGAGTCACCTAGTGCAG | 3390 fluorescence intensity (a.u.)
28 | GTGCTGCTGACTCCAGCTTGACCTGTAGCAGTGATCCAAACGGAGTCACCTAGTGCAG | 3630 fluorescence intensity (a.u.)
29 | ACTGGCAAACCTGGGCCGGCCGGTGGTGAATCGTGGGTTGCGGAGTCACCTAGTGCAG | 3180 fluorescence intensity (a.u.)
30 | ACGCAGTCACGCAGACCACAGGGCGATGCAGCGGACCGACCGGAGTCACCTAGTGCAG | 40900 fluorescence intensity (a.u.)
31 | GAGAGAAGATAGTAGTGGTAGTAGTAGCTGAGCTGTGTCACGGAGTCACCTAGTGCAG | 3360 fluorescence intensity (a.u.)
32 | CGCCCTCCTGTCGCCACGTGTCTCGCCGGCGCCACCTCGCCGGAGTCACCTAGTGCAG | 26200 fluorescence intensity (a.u.)
33 | TCCCCGGAGATTGCACACTTCTCCTCGCAACTAACAATACCGGAGTCACCTAGTGCAG | 5580 fluorescence intensity (a.u.)
34 | GATACGCCTGGGAGGCCACGTATCCGTATCGGATACGCCTCGGAGTCACCTAGTGCAG | 5440 fluorescence intensity (a.u.)
35 | ACAGGGAAATCATCAAAGATGGGGAAATTGTACTCGTAGCCGGAGTCACCTAGTGCAG | 3560 fluorescence intensity (a.u.)
36 | CAAATGGCTTCTACTTTTGAGCCACGTCAAAACCTCGGTTCGGAGTCACCTAGTGCAG | 10500 fluorescence intensity (a.u.)
37 | TAGCCCCTATCATATGGGTCCACGTGGGTCCCAAGATGAACGGAGTCACCTAGTGCAG | 9080 fluorescence intensity (a.u.)
38 | GAAGATTAGAGGTTTCTTGTAACGAACGAACGAGGCCATCCGGAGTCACCTAGTGCAG | 3390 fluorescence intensity (a.u.)
39 | AGCCGCCATGGCCACGTCCACTGCCTTATCCACATCCAATCGGAGTCACCTAGTGCAG | 6420 fluorescence intensity (a.u.)
40 | TATTTGTGGGTGTGAGTGTGGTGAGCGTGCGTGTGTCTTACGGAGTCACCTAGTGCAG | 3900 fluorescence intensity (a.u.)
41 | TAGGAATTTCTCTAATTTATTAAAGCGCCACGTGTCAGTTCGGAGTCACCTAGTGCAG | 31300 fluorescence intensity (a.u.)
42 | ATCGCCCTCGCTCGCCGCCACGCTGCTCCAGCGACTATTACGGAGTCACCTAGTGCAG | 3780 fluorescence intensity (a.u.)
